Results: the supplement of paper PMC11732987, “Enantioselective OTUD7B fragment discovery through chemoproteomics screening and high-throughput optimisation” (Communications Chemistry, 2025)
This is one part of the list. The data scatter; read single values as rough.

Amino acid sequences for entries named in this document (tags omitted). A change or cut given only in a name is not applied to a line headed by its entry. Residues count along the entry.
UniProt Q8IY17: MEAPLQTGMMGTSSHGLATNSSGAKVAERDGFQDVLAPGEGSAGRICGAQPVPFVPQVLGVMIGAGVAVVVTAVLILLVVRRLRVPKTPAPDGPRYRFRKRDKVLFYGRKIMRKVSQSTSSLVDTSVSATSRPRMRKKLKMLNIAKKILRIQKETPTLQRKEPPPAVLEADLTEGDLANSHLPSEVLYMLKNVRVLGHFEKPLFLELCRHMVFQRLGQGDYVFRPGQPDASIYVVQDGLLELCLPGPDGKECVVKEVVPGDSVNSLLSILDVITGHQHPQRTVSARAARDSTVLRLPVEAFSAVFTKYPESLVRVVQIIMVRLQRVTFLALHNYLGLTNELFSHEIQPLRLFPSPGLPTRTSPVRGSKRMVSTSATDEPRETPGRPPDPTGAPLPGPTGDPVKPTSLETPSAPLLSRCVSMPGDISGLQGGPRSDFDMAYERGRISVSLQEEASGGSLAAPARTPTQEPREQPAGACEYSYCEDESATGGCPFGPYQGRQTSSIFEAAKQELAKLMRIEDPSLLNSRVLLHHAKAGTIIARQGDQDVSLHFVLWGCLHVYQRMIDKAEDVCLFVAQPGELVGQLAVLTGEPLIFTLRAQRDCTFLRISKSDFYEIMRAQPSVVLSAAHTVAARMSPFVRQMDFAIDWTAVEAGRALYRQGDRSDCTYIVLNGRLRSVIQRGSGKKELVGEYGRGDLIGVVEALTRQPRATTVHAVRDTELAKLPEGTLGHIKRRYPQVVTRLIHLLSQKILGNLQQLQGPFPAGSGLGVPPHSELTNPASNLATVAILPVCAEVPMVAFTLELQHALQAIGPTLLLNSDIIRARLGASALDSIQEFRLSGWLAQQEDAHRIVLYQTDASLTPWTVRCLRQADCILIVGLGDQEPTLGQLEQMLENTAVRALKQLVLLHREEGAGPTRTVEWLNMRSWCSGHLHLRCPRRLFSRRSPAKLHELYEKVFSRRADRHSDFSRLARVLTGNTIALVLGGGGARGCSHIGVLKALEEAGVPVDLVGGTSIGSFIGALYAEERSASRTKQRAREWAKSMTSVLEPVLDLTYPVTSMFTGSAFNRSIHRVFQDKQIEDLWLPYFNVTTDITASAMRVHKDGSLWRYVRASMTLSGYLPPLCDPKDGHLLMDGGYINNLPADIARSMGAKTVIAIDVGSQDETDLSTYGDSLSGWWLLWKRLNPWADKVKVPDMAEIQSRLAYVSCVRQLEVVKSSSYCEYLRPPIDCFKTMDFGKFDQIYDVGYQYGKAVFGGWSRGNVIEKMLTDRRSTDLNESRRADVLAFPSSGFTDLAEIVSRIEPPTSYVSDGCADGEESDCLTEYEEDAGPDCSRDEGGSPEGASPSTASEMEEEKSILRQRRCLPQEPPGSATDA
UniProt Q9NRD5, whole entry, looked up: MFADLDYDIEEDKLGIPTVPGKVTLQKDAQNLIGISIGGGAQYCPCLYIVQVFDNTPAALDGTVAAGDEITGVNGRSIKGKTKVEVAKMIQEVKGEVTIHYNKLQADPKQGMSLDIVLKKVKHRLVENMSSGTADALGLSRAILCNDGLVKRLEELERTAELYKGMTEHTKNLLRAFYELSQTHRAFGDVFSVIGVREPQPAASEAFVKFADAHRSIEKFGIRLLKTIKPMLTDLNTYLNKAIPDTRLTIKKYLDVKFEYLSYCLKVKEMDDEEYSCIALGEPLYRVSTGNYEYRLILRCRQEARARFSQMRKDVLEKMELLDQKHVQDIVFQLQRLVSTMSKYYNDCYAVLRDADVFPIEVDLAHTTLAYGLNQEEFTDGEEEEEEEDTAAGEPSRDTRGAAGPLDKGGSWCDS
UniProt Q92508, 366-396: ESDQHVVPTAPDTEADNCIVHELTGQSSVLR
UniProt Q9UBF8: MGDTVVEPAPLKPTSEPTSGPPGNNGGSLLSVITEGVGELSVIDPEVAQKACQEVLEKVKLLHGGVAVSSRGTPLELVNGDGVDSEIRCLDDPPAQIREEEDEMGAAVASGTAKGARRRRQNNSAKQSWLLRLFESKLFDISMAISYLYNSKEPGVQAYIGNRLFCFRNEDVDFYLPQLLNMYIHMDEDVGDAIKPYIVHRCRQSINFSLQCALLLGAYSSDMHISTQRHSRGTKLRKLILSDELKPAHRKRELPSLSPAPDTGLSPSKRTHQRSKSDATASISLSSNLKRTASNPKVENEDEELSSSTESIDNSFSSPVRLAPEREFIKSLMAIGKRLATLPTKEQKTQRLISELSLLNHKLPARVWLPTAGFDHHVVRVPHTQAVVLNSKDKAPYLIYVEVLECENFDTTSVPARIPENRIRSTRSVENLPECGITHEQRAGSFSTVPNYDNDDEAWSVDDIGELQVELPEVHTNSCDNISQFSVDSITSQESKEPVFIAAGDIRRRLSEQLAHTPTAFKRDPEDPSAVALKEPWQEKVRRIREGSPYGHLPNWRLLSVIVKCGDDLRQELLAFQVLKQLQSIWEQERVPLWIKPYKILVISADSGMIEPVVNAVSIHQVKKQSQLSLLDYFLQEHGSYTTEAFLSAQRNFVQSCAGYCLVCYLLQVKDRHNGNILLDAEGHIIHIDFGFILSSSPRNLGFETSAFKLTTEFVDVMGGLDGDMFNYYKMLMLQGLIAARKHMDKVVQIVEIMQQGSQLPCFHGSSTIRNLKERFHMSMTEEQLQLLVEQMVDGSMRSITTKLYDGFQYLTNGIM
UniProt O00443: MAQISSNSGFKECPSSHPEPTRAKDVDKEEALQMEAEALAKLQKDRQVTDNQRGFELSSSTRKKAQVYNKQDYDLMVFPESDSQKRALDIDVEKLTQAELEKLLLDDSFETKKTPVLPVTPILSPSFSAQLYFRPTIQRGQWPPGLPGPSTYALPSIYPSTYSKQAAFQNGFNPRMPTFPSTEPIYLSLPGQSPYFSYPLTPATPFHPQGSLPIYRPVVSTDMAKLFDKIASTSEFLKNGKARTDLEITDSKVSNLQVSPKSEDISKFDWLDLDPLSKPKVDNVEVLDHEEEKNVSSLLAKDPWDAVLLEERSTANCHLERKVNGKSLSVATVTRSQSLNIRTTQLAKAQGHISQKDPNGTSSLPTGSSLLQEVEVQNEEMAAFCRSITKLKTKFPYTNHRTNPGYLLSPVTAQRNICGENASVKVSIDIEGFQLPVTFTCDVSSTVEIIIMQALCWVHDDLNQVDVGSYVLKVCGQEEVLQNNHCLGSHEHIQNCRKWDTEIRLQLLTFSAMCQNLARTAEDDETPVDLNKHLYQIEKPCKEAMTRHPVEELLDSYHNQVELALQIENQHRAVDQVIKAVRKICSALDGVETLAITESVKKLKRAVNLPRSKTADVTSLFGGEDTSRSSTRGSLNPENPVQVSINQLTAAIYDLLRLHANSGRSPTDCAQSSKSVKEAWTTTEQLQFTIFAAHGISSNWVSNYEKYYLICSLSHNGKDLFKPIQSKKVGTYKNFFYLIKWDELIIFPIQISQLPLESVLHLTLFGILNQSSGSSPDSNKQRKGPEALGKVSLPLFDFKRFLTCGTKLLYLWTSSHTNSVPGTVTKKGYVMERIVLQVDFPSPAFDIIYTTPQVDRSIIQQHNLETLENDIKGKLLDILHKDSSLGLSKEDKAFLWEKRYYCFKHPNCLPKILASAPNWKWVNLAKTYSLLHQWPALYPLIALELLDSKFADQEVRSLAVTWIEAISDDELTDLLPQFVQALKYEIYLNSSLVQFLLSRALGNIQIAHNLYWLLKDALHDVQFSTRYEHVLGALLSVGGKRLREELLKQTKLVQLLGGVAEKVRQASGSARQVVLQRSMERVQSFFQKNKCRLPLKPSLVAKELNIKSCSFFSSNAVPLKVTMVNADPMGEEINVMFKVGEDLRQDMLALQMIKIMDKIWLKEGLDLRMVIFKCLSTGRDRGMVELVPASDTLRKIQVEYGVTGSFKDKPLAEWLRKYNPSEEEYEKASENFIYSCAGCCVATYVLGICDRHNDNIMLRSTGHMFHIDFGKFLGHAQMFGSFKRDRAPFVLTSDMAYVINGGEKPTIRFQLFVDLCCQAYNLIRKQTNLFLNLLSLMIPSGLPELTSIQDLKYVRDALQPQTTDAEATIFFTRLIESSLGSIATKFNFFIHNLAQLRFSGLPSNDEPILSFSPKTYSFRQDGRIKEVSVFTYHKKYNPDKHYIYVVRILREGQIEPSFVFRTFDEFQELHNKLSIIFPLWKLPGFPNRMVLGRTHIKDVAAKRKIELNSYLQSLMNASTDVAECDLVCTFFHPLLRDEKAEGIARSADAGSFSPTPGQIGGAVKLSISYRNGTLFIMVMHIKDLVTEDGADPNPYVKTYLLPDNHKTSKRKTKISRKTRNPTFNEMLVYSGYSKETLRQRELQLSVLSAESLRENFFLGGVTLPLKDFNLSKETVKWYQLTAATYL
UniProt P78337, whole entry, looked up: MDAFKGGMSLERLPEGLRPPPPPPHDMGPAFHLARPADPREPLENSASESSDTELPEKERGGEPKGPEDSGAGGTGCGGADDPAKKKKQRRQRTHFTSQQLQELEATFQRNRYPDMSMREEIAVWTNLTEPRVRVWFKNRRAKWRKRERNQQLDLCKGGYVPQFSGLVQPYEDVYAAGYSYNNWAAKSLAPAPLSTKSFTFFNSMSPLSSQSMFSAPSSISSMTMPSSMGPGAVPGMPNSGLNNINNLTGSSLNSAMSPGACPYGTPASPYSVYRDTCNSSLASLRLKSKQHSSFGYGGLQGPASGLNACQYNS
UniProt Q9UIW2: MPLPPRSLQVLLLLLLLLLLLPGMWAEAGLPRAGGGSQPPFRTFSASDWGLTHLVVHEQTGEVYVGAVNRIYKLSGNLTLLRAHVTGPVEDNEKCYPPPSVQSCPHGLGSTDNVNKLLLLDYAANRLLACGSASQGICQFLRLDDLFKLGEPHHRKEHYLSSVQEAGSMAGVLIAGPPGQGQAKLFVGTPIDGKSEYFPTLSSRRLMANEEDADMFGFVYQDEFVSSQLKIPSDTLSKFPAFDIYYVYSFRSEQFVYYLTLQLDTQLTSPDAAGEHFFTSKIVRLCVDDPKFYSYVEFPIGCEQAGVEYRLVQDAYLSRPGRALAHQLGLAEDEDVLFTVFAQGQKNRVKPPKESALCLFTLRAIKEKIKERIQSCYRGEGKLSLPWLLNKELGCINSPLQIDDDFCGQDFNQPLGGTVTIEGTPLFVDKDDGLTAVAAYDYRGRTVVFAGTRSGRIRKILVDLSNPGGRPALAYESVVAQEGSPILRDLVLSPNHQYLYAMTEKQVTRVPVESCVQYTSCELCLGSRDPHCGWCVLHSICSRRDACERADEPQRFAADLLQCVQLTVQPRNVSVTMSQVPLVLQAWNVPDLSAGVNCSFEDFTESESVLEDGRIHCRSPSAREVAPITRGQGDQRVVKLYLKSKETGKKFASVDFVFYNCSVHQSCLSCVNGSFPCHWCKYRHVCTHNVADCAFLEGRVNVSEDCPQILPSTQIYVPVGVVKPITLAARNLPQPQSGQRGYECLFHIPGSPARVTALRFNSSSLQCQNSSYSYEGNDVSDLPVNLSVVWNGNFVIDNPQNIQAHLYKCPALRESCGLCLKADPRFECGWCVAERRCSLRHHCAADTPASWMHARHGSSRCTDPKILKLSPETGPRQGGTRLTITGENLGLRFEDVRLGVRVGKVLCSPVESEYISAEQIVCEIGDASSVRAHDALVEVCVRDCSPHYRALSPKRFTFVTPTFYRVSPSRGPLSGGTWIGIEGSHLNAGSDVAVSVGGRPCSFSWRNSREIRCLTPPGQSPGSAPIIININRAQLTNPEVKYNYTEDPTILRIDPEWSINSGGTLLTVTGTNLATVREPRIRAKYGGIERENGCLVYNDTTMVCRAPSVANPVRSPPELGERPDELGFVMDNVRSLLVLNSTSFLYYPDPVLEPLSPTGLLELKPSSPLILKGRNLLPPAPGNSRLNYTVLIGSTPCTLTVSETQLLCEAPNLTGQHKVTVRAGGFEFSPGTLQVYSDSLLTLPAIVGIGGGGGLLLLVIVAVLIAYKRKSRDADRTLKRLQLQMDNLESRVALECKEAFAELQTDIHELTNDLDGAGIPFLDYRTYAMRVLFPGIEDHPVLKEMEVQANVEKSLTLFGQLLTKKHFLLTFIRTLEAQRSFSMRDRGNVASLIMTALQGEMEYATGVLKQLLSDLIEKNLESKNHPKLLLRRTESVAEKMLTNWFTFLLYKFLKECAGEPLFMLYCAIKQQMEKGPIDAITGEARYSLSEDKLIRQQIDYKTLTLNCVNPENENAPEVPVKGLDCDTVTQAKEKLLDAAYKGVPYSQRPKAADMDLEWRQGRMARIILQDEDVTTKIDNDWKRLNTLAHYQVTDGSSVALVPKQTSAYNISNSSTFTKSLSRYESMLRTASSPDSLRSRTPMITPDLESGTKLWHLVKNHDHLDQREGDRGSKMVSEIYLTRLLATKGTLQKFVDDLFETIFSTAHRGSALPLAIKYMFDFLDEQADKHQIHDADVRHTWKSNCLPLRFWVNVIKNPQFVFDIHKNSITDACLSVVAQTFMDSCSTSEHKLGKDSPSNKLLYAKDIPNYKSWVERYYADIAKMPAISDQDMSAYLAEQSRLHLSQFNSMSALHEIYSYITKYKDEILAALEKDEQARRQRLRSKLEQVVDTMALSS

These targets were tested with ClCC(=O)N[C@@H]1CCCc2ccccc12 (assay: log2 mean competition ratio of IA-DTB cysteine labelling (DMSO/compound) (log2 ratio); higher = stronger cysteine engagement by compound). Conditions: 50 µM; treatment time: 4 h; cell line lysate: HEK293T.
Protocol: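 IA-DTB competitive cysteine chemoproteomics in HEK293T RIPA lysate. Lysates were treated with compound 29 or 30 at 50 or 200 µM for 4 h, then IA-DTB (500 µM, 1 h), trypsin-digested, NeutrAvidin-enriched and analysed by diaPASEF. Competition ratio = intensity DMSO / intensity compound (n=4 treated, n=64 DMSO); binding: mean log2 CR ≥ 1 and p ≤ 0.05 plus QC filters. Target is the cysteine site.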
For PNPLA6 C665 (UniProt Q8IY17), the “log2 mean competition ratio” value was -0.158.
For PIK3CD C366 (UniProt O00329), the “log2 mean competition ratio” value was -0.064.
For PKM C152, the “log2 mean competition ratio” value was -0.135.
With PICK1 C145 (UniProt Q9NRD5) the “log2 mean competition ratio” value was -0.0265.
In the case of PMVK C38 (UniProt Q15126), the “log2 mean competition ratio” value is reported as 0.0558.
For PLCG1 C881 (UniProt P19174), the “log2 mean competition ratio” value was -0.0852.
PIK3R4 C195 (UniProt Q99570) was tested, and the “log2 mean competition ratio” value was -0.0339.
In the case of PODXL C344 (UniProt O00592), the “log2 mean competition ratio” value is reported as -0.226.
With PNMA3 C130 the “log2 mean competition ratio” value was 0.284.
With POLR1F C193 the “log2 mean competition ratio” value was 0.0762.
In the case of PI4KA C1761 (UniProt P42356), the “log2 mean competition ratio” value is reported as 0.00925.
In the case of PLCG1 C646 (UniProt P19174), the “log2 mean competition ratio” value is reported as -0.101.
In the case of PIEZO1 C383 (UniProt Q92508), the “log2 mean competition ratio” value is reported as -0.0552.
With POLR1E C138 (UniProt Q9GZS1) the “log2 mean competition ratio” value was -0.0721.
In the case of POLD1 C428 (UniProt P28340), the “log2 mean competition ratio” value is reported as 0.348.
In the case of PLPBP C15 (UniProt O94903), the “log2 mean competition ratio” value is reported as 0.24.
In the case of PI4KB C89 (UniProt Q9UBF8), the “log2 mean competition ratio” value is reported as -0.221.
In the case of PLEKHF2 C129 (UniProt Q9H8W4), the “log2 mean competition ratio” value is reported as 0.0582.
POLR1D C68 was tested, and the “log2 mean competition ratio” value was -0.0895.
PJA1 C241 was tested, and the “log2 mean competition ratio” value was 0.0442.
PKP4 C492 (UniProt Q99569) was tested, and the “log2 mean competition ratio” value was 0.0524.
In the case of PIK3C2A C418 (UniProt O00443), the “log2 mean competition ratio” value is reported as -0.0231.
For PITX1 C278 (UniProt P78337), the “log2 mean competition ratio” value was -0.0144.
PLEKHA2 C191 (UniProt Q9HB19) was tested, and the “log2 mean competition ratio” value was 0.0637.
With PLXNA1 C1744 (UniProt Q9UIW2) the “log2 mean competition ratio” value was 0.114.
PIK3C2A C13 (UniProt O00443) was tested, and the “log2 mean competition ratio” value was -0.0192.
With PMM1 C57 (UniProt Q92871) the “log2 mean competition ratio” value was -0.0525.
For PLBD2 C495 (UniProt Q8NHP8), the “log2 mean competition ratio” value was 0.0739.
